# Laboratory results from PubChem BioAssay AID2685 (National Center for Advancing Translational Sciences (NCATS), 2010).
# This is one part of the list. Further columns of the screen follow, without active or inactive calls. Most of these compounds were active or inconclusive in the main read-out, so they are no random draw. The note in brackets gives the kind of curve behind each potency; many fits are weak.
# Test: qHTS Assay for Lipid Storage Modulators in Drosophila S3 Cells;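 as to cell number change: cells counted by Cell Tracker Red CMTPX staining in the red channel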
# Details: BODIPY lipid droplet fluorescence, 18-24 h; for cell number change: measured here: cell count max response, cells fed with added oleic acid
# Summary of the method: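 Laser-scanning cytometry quantifies lipid droplet accumulation (500–530 nm total intensity; droplet/cell object ratio) in oleic acid-fed (400 uM added) Drosophila S3 cells treated with a concentration series. 20 uM Triacsin C defined 100% inhibition.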
# [1] = measured here: lipid fluorescence (Fed channel) AC50, cells fed with added oleic acid
# [2] = measured here: cell number channel AC50, cells fed with added oleic acid
Compound,AC50 [1],cell number change,AC50 [2]
Cc1nc(C(=O)Nc2ccc(Cl)cc2)nn1-c1ccc([N+](=O)[O-])cc1,"651 nM [rising, single point]",–,–
COCC(=O)Nc1ccc(S(=O)(=O)Nc2cc(C)nc(C)n2)cc1,"6510 nM [falling, single point]",–,–
COc1cc(OC)cc(-c2c(-c3ccc(F)cc3)c3cc(-c4cccc5[nH]ccc45)ccc3n2C)c1,"1030 nM [rising, full curve]",13.9%,–
COc1ccc(OC)c(NC(=O)C(=S)NC2CCCCC2)c1,–,38.6%,–
COCC(=O)N(Cc1cc2cc(OC)ccc2[nH]c1=O)c1ccccc1,"4110 nM [rising, single point]",–,"3260 nM [rising, single point]"
Cc1ccccc1C(=O)Nc1ccc(N2CCN(C(=O)c3ccco3)CC2)cc1,"29100 nM [rising, single point]",18.9%,"5170 nM [rising, partial curve]"
COc1cc(OC)cc(-c2oc3cccnc3c2C#CCCO)c1,–,-5.5%,–
O=C(NNC(=O)c1ccc(Cn2cccn2)o1)NC12CC3CC(CC(C3)C1)C2,–,-16.7%,–
COc1cc(/C=C2/C(=O)N(c3ccc(C)c(C)c3)N=C2C)cc([N+](=O)[O-])c1O,"2310 nM [rising, partial curve]",5.84%,–
Cn1c(SCC(=O)NCC2CCCO2)nnc1-c1ccc(Cl)cc1 (configuration not stated),–,5.63%,"517 nM [falling, single point]"
C1=CC2c3ccccc3NC(c3ccncc3)C2C1 (configuration not stated),–,-7.39%,–
Cc1cc(NC(=O)CSc2nnc(-c3ccc4c(c3)OCCO4)o2)no1,"231 nM [falling, full curve, poor fit]",1.43%,–
Cc1nc2ncccn2c1-c1csc(Nc2ccc(N(C)C)cc2)n1,–,-13.7%,"1640 nM [falling, partial curve, poor fit]"
Cc1c(NC(=O)CSc2ccc(Cl)cc2)cccc1-c1nc2ncccc2o1,"29100 nM [rising, partial curve, poor fit]",127%,–
Cc1ccc(Cl)cc1NC(=O)COC(=O)C1CCCCC1,–,-0.0213%,–
C/C(=N/OC(=O)c1ccc(C(F)(F)F)cc1)c1oc(C)nc1C,"291 nM [falling, full curve, poor fit]",-7.24%,–
CC1=C(C)CC(C(=O)N2CCN(Cc3ccccc3)CC2)C(C(=O)O)C1 (configuration not stated),"6510 nM [rising, single point]",-3.9%,–
CSc1ccccc1NC(=O)CN(C)CC(=O)Nc1ccc(Cl)cc1F,"9200 nM [rising, partial curve]",15.5%,–
O=C(CSc1nnc(-c2cccs2)o1)OCc1ccccc1,–,-35.8%,"8200 nM [falling, partial curve, poor fit]"
C[C@@H](CN1C(=O)C(=O)NC[C@@H]1Cc1ccc(O)cc1)NC(=O)Cc1ccccc1,"29100 nM [rising, single point]",9.58%,–

Compound,AC50 [1],cell number change,AC50 [2]
COc1cccc(N=Nc2ccc3cccnc3c2O)c1,"18400 nM [falling, single point]",-60.7%,"18400 nM [falling, single point]"
Cc1ccc(SCC(=O)NC(=O)NCCC(C)C)c(C)c1,"58 nM [rising, full curve, poor fit]",45.3%,"4.61 nM [rising, full curve, poor fit]"
CCOC(=O)CSc1nc2c(sc3ccccc32)c(=O)n1CCCN1CCOCC1,"326 nM [rising, partial curve, poor fit]",–,"731 nM [rising, single point]"
O=C(O)c1cccc(Nc2ccc3nonc3c2[N+](=O)[O-])c1,–,-6.63%,–
CC(=O)Nc1ccc(C(=O)OCC(=O)Nc2ccc(N3CCOCC3)cc2)cc1,"2310 nM [falling, partial curve]",–,–
COc1ccc(NC(=O)N(C2CCCCC2)C(C)c2cccnc2)c(OC)c1 (configuration not stated),–,-5.35%,"5.8 nM [falling, full curve, poor fit]"
COc1ccccc1CNCC(=O)NCc1ccc(C)cc1,–,3.6%,"5.8 nM [falling, full curve, poor fit]"
CN1CCOc2ccc(S(=O)(=O)NCCc3ccc(Cl)cc3)cc21,"29100 nM [falling, single point]",24.8%,–
Cc1cc(N2CCOCC2)nc(SCC(=O)c2ccc(Cl)cc2)n1,"1640 nM [rising, partial curve]",8.69%,–
O=C(N/N=C/c1ccc(OC2CSC2)cc1)c1ccc(CN2CCOCC2)cc1,"29100 nM [falling, single point]",-84%,"29100 nM [falling, single point]"
COc1ccc(OC)c(NC(=O)CCNS(=O)(=O)c2ccc3c(c2)c(=O)n(C)c(=O)n3C)c1,–,12.2%,–
CCCCSc1c(C)c2cc3c(cc2[nH]c1=O)OCO3,"206 nM [rising, full curve, poor fit]",80.5%,"29100 nM [rising, partial curve, poor fit]"
CCCn1nnc(NC(=O)COc2ccccc2Cl)n1,"651 nM [falling, full curve, poor fit]",-17.1%,"651 nM [falling, full curve, poor fit]"
Cc1onc(-c2ccccc2Cl)c1C(=O)N1CC(C)OC(C)C1 (configuration not stated),–,10.8%,–
CC(C)Cc1nc(N2CCN(C(=O)c3ccco3)CC2)c(C#N)c2c1CCCC2,"6510 nM [falling, partial curve, poor fit]",2.09%,–
CCOc1ccccc1CN1CCNC(=O)C1CC(=O)NC1CCCCCC1 (configuration not stated),"32600 nM [falling, single point]",-26.4%,–
O=C(NCC1CCCO1)c1ccc(Cl)c(S(=O)(=O)N2CCOCC2)c1 (configuration not stated),"206 nM [rising, full curve, poor fit]",15.1%,–
COc1cccc(C2SCC(=O)N2c2ccc(C)cc2)c1OC (configuration not stated),"2590 nM [rising, single point]",–,–
CCCN(CC(=O)Nc1ccccc1OC)C(=O)c1cc2ccccc2o1,"4110 nM [rising, single point]",1.9%,–

# Reprinted at random: 2 records from the list.
Compound,AC50 [1],cell number change,AC50 [2]
O=C(O)c1cccc(Nc2ccc3nonc3c2[N+](=O)[O-])c1,–,-6.63%,–
CCOc1ccccc1CN1CCNC(=O)C1CC(=O)NC1CCCCCC1 (configuration not stated),"32600 nM [falling, single point]",-26.4%,–
